Measurements published in US12188947B2, “Marker for diagnosing atherosclerosis severity, and diagnostic method using same” (EWHA UNIVERSITY—INDUSTRY COLLABORATION FOUNDATION, priority 2018, dated 2025).
At least one peptide structure holds a part that was inferred or is arguable (an end, a ring closure or a residue). Where no end group is shown, it is not given here.

System: Apoe −/− mice
Assay: Plaque formation test (en face Oil Red O staining of aorta) after LGI3 antagonist peptide injection
Type: in vivo, mouse

DEGRQKFVRFQELAV [LGI3 P34, DEGRQKFVRFQELAV]
plaque formation in the descending thoracic aorta (high fat diet 16 weeks, intraperitoneal injection twice a week for the last 5 weeks, n=9, PBS control 7.52±1.26, P=0.01): 4.44±0.58% | plaque formation (total aorta) (high fat diet 16 weeks, intraperitoneal injection twice a week for the last 5 weeks, n=9, PBS control 14.76±1.26, P=0.04): 11.42±0.97% | atherosclerotic plaque formation (in words) (versus PBS control, FIG. 5): reduces atherosclerotic plaque formation
